# Measurements: the supplement of paper PMC6411743
# Chains of the proteins cited; added tags and fusions are not shown. Lines headed by an entry give the natural chain unless they say otherwise; changes in a name come on top.
# UniProt Q9NX46: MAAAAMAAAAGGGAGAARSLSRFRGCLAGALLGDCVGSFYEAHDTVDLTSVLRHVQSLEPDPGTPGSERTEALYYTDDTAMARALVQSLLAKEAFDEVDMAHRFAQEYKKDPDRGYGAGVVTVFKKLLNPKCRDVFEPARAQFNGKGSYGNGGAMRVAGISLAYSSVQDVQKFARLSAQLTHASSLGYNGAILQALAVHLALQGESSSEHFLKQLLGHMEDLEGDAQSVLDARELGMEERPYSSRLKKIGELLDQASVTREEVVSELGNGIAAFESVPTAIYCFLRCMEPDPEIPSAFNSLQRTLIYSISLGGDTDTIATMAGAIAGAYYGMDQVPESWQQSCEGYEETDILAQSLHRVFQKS
# UniProt Q9P215: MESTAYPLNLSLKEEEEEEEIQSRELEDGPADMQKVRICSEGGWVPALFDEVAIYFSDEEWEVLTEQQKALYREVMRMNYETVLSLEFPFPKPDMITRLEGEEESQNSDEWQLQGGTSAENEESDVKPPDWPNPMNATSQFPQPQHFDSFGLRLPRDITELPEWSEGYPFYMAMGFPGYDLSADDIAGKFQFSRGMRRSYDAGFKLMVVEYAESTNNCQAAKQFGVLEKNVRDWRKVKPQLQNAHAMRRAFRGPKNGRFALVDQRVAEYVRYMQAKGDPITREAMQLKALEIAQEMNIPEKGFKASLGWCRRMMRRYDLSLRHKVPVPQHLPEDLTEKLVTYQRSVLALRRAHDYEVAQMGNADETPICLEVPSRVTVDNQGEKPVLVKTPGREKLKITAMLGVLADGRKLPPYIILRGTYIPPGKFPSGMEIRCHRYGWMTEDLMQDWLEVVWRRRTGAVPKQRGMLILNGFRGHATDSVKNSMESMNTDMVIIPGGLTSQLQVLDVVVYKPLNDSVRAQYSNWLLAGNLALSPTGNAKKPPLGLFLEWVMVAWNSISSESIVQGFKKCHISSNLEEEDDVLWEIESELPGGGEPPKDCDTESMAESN
# UniProt Q9P0J1: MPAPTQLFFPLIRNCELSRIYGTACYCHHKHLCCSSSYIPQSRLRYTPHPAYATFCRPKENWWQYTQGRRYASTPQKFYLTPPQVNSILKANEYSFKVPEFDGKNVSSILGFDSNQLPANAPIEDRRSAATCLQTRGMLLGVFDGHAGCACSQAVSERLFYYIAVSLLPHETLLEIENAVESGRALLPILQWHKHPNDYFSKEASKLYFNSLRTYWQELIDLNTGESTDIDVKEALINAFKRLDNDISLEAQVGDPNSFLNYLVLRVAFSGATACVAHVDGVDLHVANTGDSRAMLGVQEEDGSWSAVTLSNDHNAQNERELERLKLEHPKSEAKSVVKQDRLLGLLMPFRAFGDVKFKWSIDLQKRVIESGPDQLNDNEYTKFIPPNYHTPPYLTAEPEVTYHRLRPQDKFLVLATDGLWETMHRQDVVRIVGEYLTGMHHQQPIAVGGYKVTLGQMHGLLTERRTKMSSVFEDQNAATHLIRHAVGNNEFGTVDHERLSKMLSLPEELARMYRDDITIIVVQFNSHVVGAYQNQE
# UniProt Q9NX01: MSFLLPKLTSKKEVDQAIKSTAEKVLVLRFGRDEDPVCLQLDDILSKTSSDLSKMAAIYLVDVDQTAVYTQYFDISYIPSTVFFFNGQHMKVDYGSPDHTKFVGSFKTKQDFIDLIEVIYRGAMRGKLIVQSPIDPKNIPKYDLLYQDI
# UniProt Q9NRY2: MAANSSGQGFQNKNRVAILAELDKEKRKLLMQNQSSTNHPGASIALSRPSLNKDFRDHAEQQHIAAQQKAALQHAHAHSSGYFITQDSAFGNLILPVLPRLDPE
# UniProt Q9NVP1: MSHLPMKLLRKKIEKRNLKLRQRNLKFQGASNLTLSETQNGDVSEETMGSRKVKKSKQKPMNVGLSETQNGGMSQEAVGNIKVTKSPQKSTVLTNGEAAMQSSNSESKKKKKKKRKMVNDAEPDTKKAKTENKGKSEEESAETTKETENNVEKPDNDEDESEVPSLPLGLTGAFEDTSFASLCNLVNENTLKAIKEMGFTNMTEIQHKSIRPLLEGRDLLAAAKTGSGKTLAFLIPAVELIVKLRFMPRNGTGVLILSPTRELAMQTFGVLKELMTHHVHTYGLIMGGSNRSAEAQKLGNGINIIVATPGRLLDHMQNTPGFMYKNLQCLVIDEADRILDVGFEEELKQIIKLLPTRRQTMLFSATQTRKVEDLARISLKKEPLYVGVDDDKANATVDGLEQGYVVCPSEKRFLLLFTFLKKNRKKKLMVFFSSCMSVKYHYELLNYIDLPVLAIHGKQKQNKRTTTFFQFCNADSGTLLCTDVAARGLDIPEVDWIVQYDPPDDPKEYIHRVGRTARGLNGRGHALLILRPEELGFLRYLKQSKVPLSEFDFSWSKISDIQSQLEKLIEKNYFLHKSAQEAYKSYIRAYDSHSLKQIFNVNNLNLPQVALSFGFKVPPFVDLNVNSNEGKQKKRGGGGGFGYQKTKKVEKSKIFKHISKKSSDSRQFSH
# UniProt Q9NSE4: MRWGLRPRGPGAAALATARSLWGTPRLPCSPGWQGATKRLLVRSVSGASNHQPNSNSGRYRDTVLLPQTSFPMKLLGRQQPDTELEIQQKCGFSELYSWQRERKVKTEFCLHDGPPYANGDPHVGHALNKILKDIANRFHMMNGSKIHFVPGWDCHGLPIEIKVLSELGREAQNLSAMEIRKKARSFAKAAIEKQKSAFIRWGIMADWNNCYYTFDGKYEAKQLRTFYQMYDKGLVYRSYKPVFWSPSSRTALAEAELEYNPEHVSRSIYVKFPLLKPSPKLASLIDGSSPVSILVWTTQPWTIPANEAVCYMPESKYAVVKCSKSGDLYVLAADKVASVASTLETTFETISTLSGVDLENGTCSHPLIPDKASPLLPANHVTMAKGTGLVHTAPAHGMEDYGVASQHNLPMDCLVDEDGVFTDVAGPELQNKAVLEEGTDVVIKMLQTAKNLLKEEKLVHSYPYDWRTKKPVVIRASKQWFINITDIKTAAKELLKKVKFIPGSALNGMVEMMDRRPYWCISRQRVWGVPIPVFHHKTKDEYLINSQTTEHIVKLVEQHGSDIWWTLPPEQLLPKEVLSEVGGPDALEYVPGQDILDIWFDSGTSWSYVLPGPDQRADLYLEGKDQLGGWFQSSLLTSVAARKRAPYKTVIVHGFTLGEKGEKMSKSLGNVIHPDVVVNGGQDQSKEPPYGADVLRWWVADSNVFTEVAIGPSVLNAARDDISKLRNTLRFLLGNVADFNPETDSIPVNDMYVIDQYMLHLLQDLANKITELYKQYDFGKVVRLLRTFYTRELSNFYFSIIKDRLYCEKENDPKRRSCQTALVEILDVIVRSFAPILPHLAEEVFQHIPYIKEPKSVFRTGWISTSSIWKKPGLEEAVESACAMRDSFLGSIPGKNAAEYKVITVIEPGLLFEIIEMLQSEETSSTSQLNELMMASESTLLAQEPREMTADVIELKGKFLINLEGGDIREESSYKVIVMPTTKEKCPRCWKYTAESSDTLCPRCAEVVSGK
# UniProt Q9NW75: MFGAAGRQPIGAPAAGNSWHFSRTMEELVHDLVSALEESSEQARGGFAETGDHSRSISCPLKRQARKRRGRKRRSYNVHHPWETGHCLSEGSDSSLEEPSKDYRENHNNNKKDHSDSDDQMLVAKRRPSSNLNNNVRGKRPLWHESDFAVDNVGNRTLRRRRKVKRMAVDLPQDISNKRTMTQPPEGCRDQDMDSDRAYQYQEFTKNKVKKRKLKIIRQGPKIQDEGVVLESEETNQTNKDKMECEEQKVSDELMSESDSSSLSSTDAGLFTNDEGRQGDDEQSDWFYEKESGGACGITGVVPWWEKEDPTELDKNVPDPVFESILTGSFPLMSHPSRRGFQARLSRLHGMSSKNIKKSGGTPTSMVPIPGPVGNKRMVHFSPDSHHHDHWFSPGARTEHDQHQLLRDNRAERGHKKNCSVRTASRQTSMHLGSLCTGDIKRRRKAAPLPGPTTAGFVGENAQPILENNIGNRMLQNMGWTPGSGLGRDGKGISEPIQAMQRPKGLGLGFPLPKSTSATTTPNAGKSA
# UniProt Q9UBD5: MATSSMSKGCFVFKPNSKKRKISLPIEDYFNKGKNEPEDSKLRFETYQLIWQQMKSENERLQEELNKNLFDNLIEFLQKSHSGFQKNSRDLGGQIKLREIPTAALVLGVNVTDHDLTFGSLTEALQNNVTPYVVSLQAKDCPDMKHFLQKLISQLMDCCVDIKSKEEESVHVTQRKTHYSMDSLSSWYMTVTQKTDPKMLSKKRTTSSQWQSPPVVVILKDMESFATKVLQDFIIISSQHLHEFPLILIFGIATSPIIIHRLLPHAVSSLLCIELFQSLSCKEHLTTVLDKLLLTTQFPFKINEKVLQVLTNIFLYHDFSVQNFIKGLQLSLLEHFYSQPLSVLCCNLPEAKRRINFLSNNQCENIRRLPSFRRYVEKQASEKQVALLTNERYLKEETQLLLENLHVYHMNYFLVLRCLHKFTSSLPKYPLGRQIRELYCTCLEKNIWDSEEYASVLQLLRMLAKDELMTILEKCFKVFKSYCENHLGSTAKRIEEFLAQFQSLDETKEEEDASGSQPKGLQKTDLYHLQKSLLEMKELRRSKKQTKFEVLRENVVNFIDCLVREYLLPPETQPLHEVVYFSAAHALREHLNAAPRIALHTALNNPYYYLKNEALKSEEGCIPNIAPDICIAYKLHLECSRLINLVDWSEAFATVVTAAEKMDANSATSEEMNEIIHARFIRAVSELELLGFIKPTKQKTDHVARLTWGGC
# UniProt Q9NZZ3: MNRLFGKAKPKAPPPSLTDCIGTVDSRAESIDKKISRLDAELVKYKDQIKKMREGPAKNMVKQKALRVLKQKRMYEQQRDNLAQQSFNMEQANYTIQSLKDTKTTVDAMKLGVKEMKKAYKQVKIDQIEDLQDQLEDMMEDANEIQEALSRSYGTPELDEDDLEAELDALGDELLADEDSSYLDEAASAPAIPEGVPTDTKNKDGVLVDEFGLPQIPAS
# UniProt Q9NS91, whole entry: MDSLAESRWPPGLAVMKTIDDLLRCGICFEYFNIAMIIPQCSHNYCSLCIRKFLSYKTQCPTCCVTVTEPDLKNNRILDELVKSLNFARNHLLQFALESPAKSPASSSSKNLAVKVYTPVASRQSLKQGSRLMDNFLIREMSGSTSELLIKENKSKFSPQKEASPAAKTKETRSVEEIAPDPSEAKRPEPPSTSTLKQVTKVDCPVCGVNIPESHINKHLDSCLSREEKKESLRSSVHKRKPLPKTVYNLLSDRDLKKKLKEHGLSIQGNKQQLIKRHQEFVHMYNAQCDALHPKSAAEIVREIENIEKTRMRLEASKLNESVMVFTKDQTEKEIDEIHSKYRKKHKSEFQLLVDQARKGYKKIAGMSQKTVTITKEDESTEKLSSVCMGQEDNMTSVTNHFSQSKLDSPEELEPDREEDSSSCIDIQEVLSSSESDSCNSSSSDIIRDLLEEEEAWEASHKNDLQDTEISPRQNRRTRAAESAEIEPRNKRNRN
# UniProt Q9NVX2: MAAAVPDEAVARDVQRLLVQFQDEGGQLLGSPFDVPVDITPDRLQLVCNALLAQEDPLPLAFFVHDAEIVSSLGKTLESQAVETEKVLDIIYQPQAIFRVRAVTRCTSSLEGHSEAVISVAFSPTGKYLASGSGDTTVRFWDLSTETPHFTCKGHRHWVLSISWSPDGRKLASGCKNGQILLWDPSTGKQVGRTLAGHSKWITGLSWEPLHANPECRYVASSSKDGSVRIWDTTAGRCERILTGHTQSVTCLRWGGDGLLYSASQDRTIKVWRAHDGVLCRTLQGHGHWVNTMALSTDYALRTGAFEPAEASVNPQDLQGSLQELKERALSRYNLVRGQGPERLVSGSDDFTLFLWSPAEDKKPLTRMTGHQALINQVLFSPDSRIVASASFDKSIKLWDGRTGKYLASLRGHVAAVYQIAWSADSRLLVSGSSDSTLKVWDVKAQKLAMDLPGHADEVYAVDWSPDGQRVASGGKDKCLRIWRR
# UniProt Q9NUB1: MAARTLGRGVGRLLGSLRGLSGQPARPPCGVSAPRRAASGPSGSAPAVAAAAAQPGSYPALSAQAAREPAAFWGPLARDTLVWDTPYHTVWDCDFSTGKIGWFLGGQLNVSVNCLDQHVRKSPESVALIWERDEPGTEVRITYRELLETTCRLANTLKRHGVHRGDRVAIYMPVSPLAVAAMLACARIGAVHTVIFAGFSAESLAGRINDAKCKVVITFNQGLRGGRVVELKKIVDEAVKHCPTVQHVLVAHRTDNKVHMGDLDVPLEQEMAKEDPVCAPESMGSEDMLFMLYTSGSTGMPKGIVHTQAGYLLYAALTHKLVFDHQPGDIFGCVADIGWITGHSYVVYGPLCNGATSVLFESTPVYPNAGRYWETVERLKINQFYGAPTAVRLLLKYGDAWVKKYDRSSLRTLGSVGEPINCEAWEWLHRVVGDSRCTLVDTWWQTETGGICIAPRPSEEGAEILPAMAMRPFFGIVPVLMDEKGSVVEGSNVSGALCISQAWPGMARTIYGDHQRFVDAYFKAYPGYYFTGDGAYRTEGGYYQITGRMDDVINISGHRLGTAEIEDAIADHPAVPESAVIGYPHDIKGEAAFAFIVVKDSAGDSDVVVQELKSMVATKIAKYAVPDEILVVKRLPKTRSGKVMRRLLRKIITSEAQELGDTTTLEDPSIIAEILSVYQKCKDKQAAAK
# ± gives the standard deviation of the averaged measurements. This is a selection; strong and weak results do not stand in their true shares.
# Compound: Nc1ncnc2c1ncn2[C@@H]1O[C@H](COP(=O)(O)OP(=O)(O)NP(=O)(O)O)[C@@H](O)[C@H]1O [adenylyl imidodiphosphate]
# Test: NP40-soluble protein abundance relative to vehicle (solubility fold change) (ratio); higher = more soluble protein in presence of AMP-PNP
# Procedure, shortened: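 Each value is a fold change relative to the detergent-processed vehicle, calculated per replicate from vsn-normalised intensities. Jurkat crude lysate received eight concentrations (0.1 to 10 mM) for 10 min at room temperature and 3 min at 37 °C, then was solubilised in 0.8% NP40 with benzonase (60 min, 4 °C). The ultracentrifuged supernatant was TMT-labelled and run by LC-MS/MS in three independent experiments.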
Target,NP40-soluble protein abundance (concentration: 1mM),NP40-soluble protein abundance (concentration: 2mM),NP40-soluble protein abundance (concentration: 4mM),NP40-soluble protein abundance (concentration: 6mM),NP40-soluble protein abundance (concentration: 8mM),NP40-soluble protein abundance (concentration: 10mM)
AASDHPPT (UniProt Q9NRN7),0.934 ± 0.065,0.889 ± 0.045,0.944 ± 0.034,0.988 ± 0.12,0.984 ± 0.12,0.957 ± 0.14
UniProt Q9NVK5 and related entries,0.955 ± 0.02,1.02 ± 0.033,0.962 ± 0.0099,0.944 ± 0.012,0.956 ± 0.046,0.9541 ± 0.0067
MTPAP (UniProt Q9NVV4),0.772 ± 0.042,0.829 ± 0.033,0.871 ± 0.042,0.932 ± 0.047,0.994 ± 0.091,1.08 ± 0.11
ADPRHL2 (UniProt Q9NX46),0.979 ± 0.041,0.976 ± 0.035,0.978 ± 0.022,0.986 ± 0.029,0.959 ± 0.019,0.98 ± 0.03
POGK (UniProt Q9P215),0.988 ± 0.041,0.978 ± 0.035,0.969 ± 0.064,0.966 ± 0.035,0.966 ± 0.062,0.959 ± 0.035
UniProt Q9P0J1 and related entries,0.991 ± 0.031,0.952 ± 0.085,0.972 ± 0.026,0.957 ± 0.036,0.944 ± 0.043,0.936 ± 0.028
UniProt Q9NQW6 and related entries,1.026 ± 0.0093,1.07 ± 0.06,1.05 ± 0.034,1.01 ± 0.03,0.98 ± 0.02,1.04 ± 0.026
TXNL4B (UniProt Q9NX01),0.984 ± 0.014,0.987 ± 0.032,0.993 ± 0.034,0.984 ± 0.015,0.98 ± 0.033,0.983 ± 0.02
UniProt Q9UBP0 and related entries,1.09 ± 0.08,1.04 ± 0.043,1.04 ± 0.056,1.04 ± 0.055,1.04 ± 0.054,1.02 ± 0.064
UniProt Q9NX14 and related entries,1.1 ± 0.021,1.02 ± 0.032,0.963 ± 0.016,0.963 ± 0.045,0.928 ± 0.026,0.923 ± 0.019
UniProt Q9NZB8 and related entries,0.973 ± 0.026,0.941 ± 0.017,0.967 ± 0.042,0.977 ± 0.061,0.993 ± 0.063,0.968 ± 0.081
RTN4 (UniProt Q9NQC3),1.05 ± 0.014,1.07 ± 0.057,1.04 ± 0.028,1.02 ± 0.014,1.01 ± 0.032,1.03 ± 0.065
UniProt Q9NRY2,0.996 ± 0.018,0.9986 ± 0.0012,0.98 ± 0.02,1.008 ± 0.0047,1.011 ± 0.0053,1.007 ± 0.0039
TMEM160 (UniProt Q9NX00),1 ± 0.039,1.02 ± 0.049,0.986 ± 0.025,1.02 ± 0.034,1.02 ± 0.028,1.01 ± 0.035
UniProt Q9NQ66 and related entries,1.02 ± 0.04,1.03 ± 0.019,1.07 ± 0.041,1.017 ± 0.0059,1.04 ± 0.011,1.07 ± 0.028
PDP2 (UniProt Q9P2J9),0.99 ± 0.049,0.971 ± 0.021,0.947 ± 0.046,0.968 ± 0.01,0.964 ± 0.02,0.956 ± 0.024
UniProt Q9NZN5-2|Q9NZN5,1.03 ± 0.036,1.06 ± 0.012,1.05 ± 0.018,0.986 ± 0.028,0.957 ± 0.011,0.995 ± 0.013
FASTKD2 (UniProt Q9NYY8),1.013 ± 0.0076,0.999 ± 0.038,0.963 ± 0.014,0.945 ± 0.031,0.953 ± 0.016,0.938 ± 0.025

Target,NP40-soluble protein abundance (concentration: 1mM),NP40-soluble protein abundance (concentration: 2mM),NP40-soluble protein abundance (concentration: 4mM),NP40-soluble protein abundance (concentration: 6mM),NP40-soluble protein abundance (concentration: 8mM),NP40-soluble protein abundance (concentration: 10mM)
CTTNBP2NL (UniProt Q9P2B4),1.02 ± 0.028,1.04 ± 0.038,1 ± 0.04,1 ± 0.022,0.972 ± 0.037,0.965 ± 0.0092
DDX18 (UniProt Q9NVP1),1.03 ± 0.045,1.03 ± 0.013,1.16 ± 0.046,1.24 ± 0.075,1.35 ± 0.12,1.43 ± 0.15
MIOS (UniProt Q9NXC5),0.987 ± 0.01,0.974 ± 0.028,0.985 ± 0.035,1.014 ± 0.0037,1.05 ± 0.023,1.07 ± 0.057
RNF181 (UniProt Q9P0P0),0.96 ± 0.026,1.02 ± 0.039,0.97 ± 0.047,0.936 ± 0.04,0.9415 ± 0.0063,0.922 ± 0.073
UniProt Q9NVI7-2,1.08 ± 0.075,1.05 ± 0.073,1.14 ± 0.18,1.29 ± 0.18,1.38 ± 0.24,1.44 ± 0.32
IARS2 (UniProt Q9NSE4),0.962 ± 0.033,0.9 ± 0.076,0.94 ± 0.015,0.937 ± 0.02,0.937 ± 0.011,0.892 ± 0.015
UniProt Q9NYJ8,0.885 ± 0.076,0.87 ± 0.05,0.9 ± 0.068,0.94 ± 0.062,0.945 ± 0.089,0.892 ± 0.092
UniProt Q9NW75 and related entries,1.03 ± 0.025,1.05 ± 0.067,1.03 ± 0.033,1.05 ± 0.069,1.05 ± 0.075,1.07 ± 0.069
UniProt Q9NWV8,0.974 ± 0.011,0.97 ± 0.037,0.972 ± 0.039,0.958 ± 0.016,0.943 ± 0.055,0.983 ± 0.061
UniProt Q9NUP7,1.03 ± 0.013,1.02 ± 0.019,1.02 ± 0.051,0.973 ± 0.037,0.97 ± 0.029,0.988 ± 0.032
DNAJC17 (UniProt Q9NVM6),1.06 ± 0.033,1.07 ± 0.041,1.1 ± 0.068,1.08 ± 0.017,1.11 ± 0.054,1.08 ± 0.03
UniProt Q9UBD5 and related entries,1.01 ± 0.021,1.01 ± 0.02,1.03 ± 0.037,0.994 ± 0.027,1.004 ± 0.0078,1.01 ± 0.041
VPS18 (UniProt Q9P253),0.9921 ± 0.0055,0.927 ± 0.067,0.973 ± 0.011,0.949 ± 0.034,0.928 ± 0.0094,0.931 ± 0.039
CHMP5 (UniProt Q9NZZ3),0.935 ± 0.088,0.953 ± 0.083,0.835 ± 0.044,0.836 ± 0.11,0.89 ± 0.024,0.874 ± 0.055
RAD18 (UniProt Q9NS91),1.03 ± 0.042,1.01 ± 0.032,1.07 ± 0.042,1.07 ± 0.02,1.05 ± 0.028,1.1 ± 0.039
UniProt Q9NVX2 and related entries,0.98 ± 0.053,0.901 ± 0.058,0.962 ± 0.031,0.969 ± 0.065,0.994 ± 0.034,0.964 ± 0.04
UniProt Q9NUB1 and related entries,0.948 ± 0.039,0.882 ± 0.081,0.955 ± 0.02,0.955 ± 0.054,0.984 ± 0.037,0.944 ± 0.048

# An excerpt from above with just NP40-soluble protein abundance (concentration: 8mM):
Target	NP40-soluble protein abundance (concentration: 8mM)
UniProt Q9NQ66 and related entries	1.04 ± 0.011
PDP2 (UniProt Q9P2J9)	0.964 ± 0.02
